“And” between values parts separate entries of the source, which are not always exact repeats. Identical values can stand only once. Counter-ions that a name gives are not always drawn.
Columns and labels:
[1] = tested on: GTP-bound RhoA; conditions: atorvastatin 3.5 µM, RSV A2-infected HEp-2 lysates, relative to DMSO
[2] = tested on: GTP-bound Rac1; conditions: atorvastatin 3.5 µM, RSV A2-infected HEp-2 lysates, relative to DMSO
[3] = tested on: RSV A2; experiment: Immunofluorescence staining and microscopy of RSV F and N; conditions: for RSV F intensity (a.u.): simvastatin 1.5 uM;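 as to RSV F intensity (a.u.): fluorescence normalized to total nuclear count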

## CC(C)c1c(C(=O)Nc2ccccc2)c(-c2ccccc2)c(-c2ccc(F)cc2)n1CC[C@@H](O)C[C@@H](O)CC(=O)O [Atorvastatin, Atorvastatin calcium salt trihydrate]
[1]
  GTP-bound RhoA level: decrease in GTP-bound RhoA and Rac1 levels
[2]
  GTP-bound Rac1 level: decrease in GTP-bound RhoA and Rac1 levels
[3]; Fig 5B, statin alone: atorvastatin 3.5 uM
  RSV F intensity (a.u.): 0.4011 a.u. and 0.2378 a.u. and 0.2898 a.u. and 0.2493 a.u.
[3]; Fig 7B, atorvastatin 3.5 uM, EHT 1864 20 uM, CN04 1 uM, CN04 1 uM + Ato 3.5 uM
  RSV F intensity (a.u.): 0.4595 a.u. and 0.2913 a.u. and 0.3801 a.u. and 0.2605 a.u.
[3]; RSV A2 MOI 0.5, HEp-2, atorvastatin 3.5 µM, MBCD 1.0 mM, EHT 1864 20.0 µM
  F protein surface expression by confocal microscopy: perturbed surface expression of the F protein

— publication PMC8556396, “Statin-mediated disruption of Rho GTPase prenylation and activity inhibits respiratory syncytial virus infection” (Communications Biology, 2021)
